PubChem BioAssay AID504764 – Drosophila RNAi Screening Center | 2011
The deposit covers about 22,000 reagents; this is an unselected part of those that have a named target and a result. Over the whole deposit, 403 (1.9%) got an active call. 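Unnormalised raw counts per well; ratio z-scores behind the hit calls and whether each hit raises or lowers signal are not deposited.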 Names joined by + are all predicted targets of the reagent. Not stated in the record: the amount of reagent.

Assay: 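Genes whose knock-down alters Notch-dependent transcription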 (primary screen)
System: Drosophila Kc167 cells
Reagent: long dsRNA against Drosophila genes
Duration: about 5 days (4 days dsRNA, then 24 h after transfection)
Treatment: transfection of constitutively active membrane-tethered Notch lacking the extracellular domain, read 24 h later
Detection: 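Firefly luciferase from an E(spl)m3 reporter with active Notch, plus control-promoter and uninduced reporter wells for normalisation; unnormalised counts, duplicate wells a and b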
Direction: induced reporter light, run 1, well a and induced reporter light, run 1, well b: higher = more light from the Notch target reporter with active Notch; control promoter light, run 1, well a and control promoter light, run 1, well b: higher = more light from the viral control promoter (cell number, transfection, viability); uninduced reporter light, run 1, well a: higher = more light from the Notch target reporter without active Notch
Call rule: 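Hit if the duplicate-averaged log2 ratio of induced to control-promoter light gives a plate-wise z beyond ±2, or induced to uninduced beyond ±1.8; weak-control or discordant-duplicate wells dropped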
Meaning of the calls: active = modifier hit (raised or lowered Notch signal); inactive = not a hit

For Cluap1 [DRSC20637], how do the results read?
induced reporter light, run 1, well a: 68230; induced reporter light, run 1, well b: 99460; control promoter light, run 1, well a: 83015; control promoter light, run 1, well b: 96640; uninduced reporter light, run 1, well a: 10140; Outcome: inactive

What did the screen give for CR14033 [DRSC02358]?
induced reporter light, run 1, well a: 1.91e5; induced reporter light, run 1, well b: 1.58e5; control promoter light, run 1, well a: 1.95e5; control promoter light, run 1, well b: 1.99e5; uninduced reporter light, run 1, well a: 19420; Outcome: inactive

How did the screen score Neos [DRSC11235]?
induced reporter light, run 1, well a: 1.05e5; induced reporter light, run 1, well b: 93270; control promoter light, run 1, well a: 68375; control promoter light, run 1, well b: 43160; uninduced reporter light, run 1, well a: 13725; Outcome: inactive

Which result is listed for Blm + CG14721 [DRSC14943]?
induced reporter light, run 1, well a: 62260; induced reporter light, run 1, well b: 96900; control promoter light, run 1, well a: 66215; control promoter light, run 1, well b: 49750; uninduced reporter light, run 1, well a: 2855; Outcome: inactive

With witty [DRSC02378], what was measured?
induced reporter light, run 1, well a: 1.20e5; induced reporter light, run 1, well b: 1.61e5; control promoter light, run 1, well a: 88330; control promoter light, run 1, well b: 1.01e5; uninduced reporter light, run 1, well a: 19585; Outcome: inactive

For pr [DRSC03596], how do the results read?
induced reporter light, run 1, well a: 1.99e5; induced reporter light, run 1, well b: 1.86e5; control promoter light, run 1, well a: 1.85e5; control promoter light, run 1, well b: 2.15e5; uninduced reporter light, run 1, well a: 14205; Outcome: inactive

Which result is listed for hid [DRSC11316]?
induced reporter light, run 1, well a: 1.97e5; induced reporter light, run 1, well b: 1.79e5; control promoter light, run 1, well a: 2.22e5; control promoter light, run 1, well b: 2.37e5; uninduced reporter light, run 1, well a: 13540; Outcome: inactive

What is on record for Efhc1.2 [DRSC06027]?
induced reporter light, run 1, well a: 88985; induced reporter light, run 1, well b: 97400; control promoter light, run 1, well a: 1.83e5; control promoter light, run 1, well b: 1.84e5; uninduced reporter light, run 1, well a: 9735; Outcome: inactive

Which result is listed for Kmn1 [DRSC19666]?
induced reporter light, run 1, well a: 1.42e5; induced reporter light, run 1, well b: 1.36e5; control promoter light, run 1, well a: 2.58e5; control promoter light, run 1, well b: 2.00e5; uninduced reporter light, run 1, well a: 8800; Outcome: inactive

2 successive records already listed, quoted:
Neos [DRSC11235] → induced reporter light, run 1, well a = 1.05e5; induced reporter light, run 1, well b = 93270; control promoter light, run 1, well a = 68375; control promoter light, run 1, well b = 43160; uninduced reporter light, run 1, well a = 13725; Outcome = inactive
Blm + CG14721 [DRSC14943] → induced reporter light, run 1, well a = 62260; induced reporter light, run 1, well b = 96900; control promoter light, run 1, well a = 66215; control promoter light, run 1, well b = 49750; uninduced reporter light, run 1, well a = 2855; Outcome = inactive

Continued:
For Tim17b1 [DRSC12179], what does the deposit list?
induced reporter light, run 1, well a: 95385; induced reporter light, run 1, well b: 1.16e5; control promoter light, run 1, well a: 89005; control promoter light, run 1, well b: 60880; uninduced reporter light, run 1, well a: 7355; Outcome: inactive

What is on record for sog [DRSC20379]?
induced reporter light, run 1, well a: 89245; induced reporter light, run 1, well b: 89030; control promoter light, run 1, well a: 89100; control promoter light, run 1, well b: 98065; uninduced reporter light, run 1, well a: 11010; Outcome: inactive

With AttB [DRSC06734], what does the deposit list?
induced reporter light, run 1, well a: 79625; induced reporter light, run 1, well b: 84025; control promoter light, run 1, well a: 1.08e5; control promoter light, run 1, well b: 1.05e5; uninduced reporter light, run 1, well a: 8615; Outcome: inactive

With Prosbeta6 [DRSC11256], what was measured?
induced reporter light, run 1, well a: 10365; induced reporter light, run 1, well b: 7185; control promoter light, run 1, well a: 6990; control promoter light, run 1, well b: 7645; uninduced reporter light, run 1, well a: 1020; Outcome: inactive

What is on record for Naprt [DRSC00630]?
induced reporter light, run 1, well a: 74460; induced reporter light, run 1, well b: 79370; control promoter light, run 1, well a: 66170; control promoter light, run 1, well b: 66625; uninduced reporter light, run 1, well a: 5350; Outcome: inactive

With CG42588 [DRSC09820], what was measured?
induced reporter light, run 1, well a: 1.45e5; induced reporter light, run 1, well b: 1.40e5; control promoter light, run 1, well a: 1.66e5; control promoter light, run 1, well b: 1.15e5; uninduced reporter light, run 1, well a: 6890; Outcome: inactive

What is on record for CG31787 [DRSC01632]?
induced reporter light, run 1, well a: 77355; induced reporter light, run 1, well b: 67445; control promoter light, run 1, well a: 86445; control promoter light, run 1, well b: 63825; uninduced reporter light, run 1, well a: 6815; Outcome: inactive

What is on record for Gcn2 [DRSC16678]?
induced reporter light, run 1, well a: 1.88e5; induced reporter light, run 1, well b: 1.81e5; control promoter light, run 1, well a: 2.41e5; control promoter light, run 1, well b: 2.63e5; uninduced reporter light, run 1, well a: 12510; Outcome: inactive

For CG31793 [DRSC02605], how do the results read?
induced reporter light, run 1, well a: 41725; induced reporter light, run 1, well b: 30620; control promoter light, run 1, well a: 75690; control promoter light, run 1, well b: 36755; uninduced reporter light, run 1, well a: 3640; Outcome: inactive
